Data: publication PMC12041529
Results are given in words; binding and its absence hold for the method and conditions named. Binding seen in cells or lysates may run through a third protein. Some results given as binding are weak or reduced against the parent protein; the word gives no strength. For some assays here: Tags and fused reporters may be left off the sequences shown. One block for each binder: values may come before it.

Chains of the proteins cited; added tags and fusions are not shown.
UniProt P56962: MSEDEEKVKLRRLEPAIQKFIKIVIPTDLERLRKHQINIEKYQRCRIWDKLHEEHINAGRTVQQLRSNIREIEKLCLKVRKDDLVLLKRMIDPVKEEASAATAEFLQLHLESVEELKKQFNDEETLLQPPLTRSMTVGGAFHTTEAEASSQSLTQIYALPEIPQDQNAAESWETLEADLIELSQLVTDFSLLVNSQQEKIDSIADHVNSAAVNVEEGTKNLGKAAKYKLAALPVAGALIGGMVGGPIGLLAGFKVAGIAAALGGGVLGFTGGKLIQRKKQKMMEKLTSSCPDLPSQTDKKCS

Key:
[1] = molecular target: GFP-STX17 (syntaxin 17) (UniProt P56962); assay: co-IP; HEK293T cells co-transfected for 24 h with Flag-GPNMB and one tagged SNARE protein (or GFP-STX17 truncations); lysis in IP buffer with 1% NP-40, 50 mM Tris-HCl pH 7.4, 50 mM EDTA, 150 mM NaCl; protein A/G magnetic beads, 4 °C
[2] = molecular target: STX17 (syntaxin 17), endogenous in THP-1 cells (human (endogenous in THP-1)) (UniProt P56962); assay: co-IP

- binding [1]: binds
B1: Flag-GPNMB (glycoprotein nonmetastatic melanoma protein B) (protein, UniProt Q14956 23-572)
chain: KRFHDVLGNERPSAYMREHNQLNGWSSDENDWNEKLYPVWKRGDMRWKNSWKGGRVQAVLTSDSPALVGSNITFAVNLIFPRCQKEDANGNIVYEKNCRNEAGLSADPYVYNWTAWSEDSDGENGTGQSHHNVFPDGKPFPHHPGWRRWNFIYVFHTLGQYFQKLGRCSVRVSVNTANVTLGPQLMEVTVYRRHGRAYVPIAQVKDVYVVTDQIPVFVTMFQKNDRNSSDETFLKDLPIMFDVLIHDPSHFLNYSTINYKWSFGDNTGLFVSTNHTVNHTYVLNGTFSLNLTVKAAAPGPCPPPPPPPRPSKPTPSLATTLKSYDSNTPGPAGDNPLELSRIPDENCQINRYGHFQATITIVEGILEVNIIQMTDVLMPVPWPESSLIDFVVTCQGSIPTEVCTIISDPTCEITQNTVCSPVDVDEMCLLTVRRTFNGSGTYCVNLTLGDDTSLALTSTLISVPDRDPASPLRMANSALISVGCLAIFVTVISLLVYKKHKEYNPIENSPGNVVRSKGLSVFLNRAKAVFFPGNQEKDPLLKNQEFKGVS

- binding [2]: binds
B2: GPNMB (glycoprotein nonmetastatic melanoma protein B), endogenous in THP-1 cells (protein, UniProt Q14956 23-572)
chain: B1 chain
